The values are deposited in ChEMBL (CHEMBL3988442, “University of Dundee, Small-Polar-MMV Screening Library” (2021)).

Results are given as percent effect. The record does not define 0% and 100%; most values in the screen are far below 50% and negative numbers occur (in some assays of this library far below -100). This is an unselected part of the compounds tested.

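Assay of Toxoplasma gondii numbers, read through their beta-galactosidase reporter with a colour substrate. Concentration: 50 µM. The record gives no direction; the compounds picked for IC50 retests had high values, so higher reads as fewer parasites. Of about 18,000 compounds tested this way, about 170 (0.94%) reached 50% or more in at least one test.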

Cc1noc(C)c1S(=O)(=O)N(C)CCc1ccccn1 gave 13.56%. CC(C)c1nnc(C2COCCN2)o1 (stereo not given) read -9.193%. For CS(=O)(=O)c1ccc(NC(=O)Cn2ccnc2)cc1 the result was -2.419%. CC(C)NC(=O)NCC1(N2CCOCC2)CCSC1 (stereo not given) read -7.221%.

With CN(C)CCNC(=O)c1ccc(Cl)cc1 the screen gave -10.92%. COCCN1CCCC(C(=O)NCC(F)(F)F)C1 (stereo not given) read 5.299%. COc1ccc(-c2ccnc(N)n2)cc1 read 14.96%. O=C(c1cnsn1)N1CCN(c2ccccn2)CC1 gave -14.28%.

With COc1ccccc1CC(=O)N1CCN(C(C)=O)CC1 the screen gave 0.8288%. OCC1(NCc2cccc(Cl)c2F)CCOCC1 gave 6.009%. For CC(C)(C)OC(=O)NCCC(=O)NC1=NCCS1 the result was -9.212%. For CC(C)OCC1CNCCO1 (stereo not given) the result was -8.057%.

Result for O=C(NC1CCc2ccccc21)c1cc[nH]n1 (stereo not given) was -2.258%. Result for OCCn1ncc2c1CN(CCc1ccccn1)C2 was -20.23%. For O=C(c1ccncc1)N1CCC2(CCCCO2)CC1 the result was -11.44%. With COCc1c(Br)cccc1NC(=O)CNC(=O)C1CC1 the screen gave -15.61%.

Result for Cc1nc(CCN2Cc3cnn(CCO)c3C2)cs1 was -16.47%. With CCOC(=O)c1ncncc1SC the screen gave -12.88%. CN(CCCNC(=O)[C@H]1CC[C@@H](N)C1)c1ccccc1 read -4.523%. For O=C(Nc1ccncc1)C1CCCO1 (stereo not given) the result was 4.139%.

With CN(C)C(CNC(=O)c1nccnc1N)c1ccsc1 (stereo not given) the screen gave 3.242%. CCNC(=O)CN1CCC(Cn2ccnc2C)CC1 gave -20.47%. With Cc1n[nH]cc1CNCc1ccccc1CO the screen gave 4.21%. With CN1C[C@@H]2CN(Cc3ccccc3OCCO)C[C@@H]2C1 the screen gave -4.813%.

C1CN(Cc2nc(C3CC3)no2)CCS1 gave -3.404%. COc1nc(N)cc(=O)[nH]1 gave -5.045%. For COCc1nnc(C(=O)N(C)Cc2ncc[nH]2)o1 the result was 6.704%. For CCCN1CCC(NC(=O)c2cccnc2)CC1 the result was -12.73%.

Result for Cn1nnc(NC(=O)c2ccc(C#N)cc2F)n1 was -8.268%. For COCCOC1CCN(S(=O)(=O)c2cn(C)cn2)CC1 the result was 2.002%. With CCCC(C)C(=O)N1CCOCC1 (stereo not given) the screen gave -3.427%. Result for OCC(O)c1cc2n(n1)CCN(Cc1ccoc1)C2 (stereo not given) was -17.7%.

With CC(=O)NCc1ccc(C(=O)CSc2nccn2C)s1 the screen gave -8.305%. CNC(CCO)Cc1ccccc1 (stereo not given) read -16.85%. Result for COc1ncccc1C(=O)NCCn1ccnc1 was -1.098%. O=C(CN(CCO)C1CC1)NC1CCN(C2CC2)CC1 read 2.339%.

For reference, 4 entries once more:

| compound | percent effect |
|---|---|
| `O=C(c1ccncc1)N1CCC2(CCCCO2)CC1` | -11.44 |
| `OCC1(NCc2cccc(Cl)c2F)CCOCC1` | 6.009 |
| `Cn1nnc(NC(=O)c2ccc(C#N)cc2F)n1` | -8.268 |
| `O=C(c1cnsn1)N1CCN(c2ccccn2)CC1` | -14.28 |